Assay results reported in patent US20250283871A1, “COMPOSITIONS AND METHODS FOR MODULATING THE INTERACTION BETWEEN SS18-SSX FUSION ONCOPROTEIN AND NUCLEOSOMES” (Dana-Farber Cancer Institute, Inc., priority 2020, published 2025).

B1: NUP160 (protein, UniProt Q12769 1-1436, looked up)
Nuclear pore complex protein …: MLHLSAAPPAPPPEVTATARPCLCSVGRRGDGGKMAAAGALERSFVELSGAERERPRHFREFTVCSIGTANAVAGAVKYSESAGGFYYVESGKLFSVTRNRFIHWKTSGDTLELMEESLDINLLNNAIRLKFQNCSVLPGGVYVSETQNRVIILMLTNQTVHRLLLPHPSRMYRSELVVDSQMQSIFTDIGKVDFTDPCNYQLIPAVPGISPNSTASTAWLSSDGEALFALPCASGGIFVLKLPPYDIPGMVSVVELKQSSVMQRLLTGWMPTAIRGDQSPSDRPLSLAVHCVEHDAFIFALCQDHKLRMWSYKEQMCLMVADMLEYVPVKKDLRLTAGTGHKLRLAYSPTMGLYLGIYMHAPKRGQFCIFQLVSTESNRYSLDHISSLFTSQETLIDFALTSTDIWALWHDAENQTVVKYINFEHNVAGQWNPVFMQPLPEEEIVIRDDQDPREMYLQSLFTPGQFTNEALCKALQIFCRGTERNLDLSWSELKKEVTLAVENELQGSVTEYEFSQEEFRNLQQEFWCKFYACCLQYQEALSHPLALHLNPHTNMVCLLKKGYLSFLIPSSLVDHLYLLPYENLLTEDETTISDDVDIARDVICLIKCLRLIEESVTVDMSVIMEMSCYNLQSPEKAAEQILEDMITIDVENVMEDICSKLQEIRNPIHAIGLLIREMDYETEVEMEKGFNPAQPLNIRMNLTQLYGSNTAGYIVCRGVHKIASTRFLICRDLLILQQLLMRLGDAVIWGTGQLFQAQQDLLHRTAPLLLSYYLIKWGSECLATDVPLDTLESNLQHLSVLELTDSGALMANRFVSSPQTIVELFFQEVARKHIISHLFSQPKAPLSQTGLNWPEMITAITSYLLQLLWPSNPGCLFLECLMGNCQYVQLQDYIQLLHPWCQVNVGSCRFMLGRCYLVTGEGQKALECFCQAASEVGKEEFLDRLIRSEDGEIVSTPRLQYYDKVLRLLDVIGLPELVIQLATSAITEAGDDWKSQATLRTCIFKHHLDLGHNSQAYEALTQIPDSSRQLDCLRQLVVVLCERSQLQDLVEFPYVNLHNEVVGIIESRARAVDLMTHNYYELLYAFHIYRHNYRKAGTVMFEYGMRLGREVRTLRGLEKQGNCYLAALNCLRLIRPEYAWIVQPVSGAVYDRPGASPKRNHDGECTAAPTNRQIEILELEDLEKECSLARIRLTLAQHDPSAVAVAGSSSAEEMVTLLVQAGLFDTAISLCQTFKLPLTPVFEGLAFKCIKLQFGGEAAQAEAWAWLAANQLSSVITTKESSATDEAWRLLSTYLERYKVQNNLYHHCVINKLLSHGVPLPNWLINSYKKVDAAELLRLYLNYDLLEEAVDLVSEYVDAVLGKGHQYFGIEFPLSATAPMVWLPYSSIDQLLQALGENSANSHNIALSQKILDKLEDYQQKVDKATRDLLYRRTL
B2: UTP4 (protein, UniProt Q969X6 1-686, looked up)
U3 small nucleolar …: MGEFKVHRVRFFNYVPSGIRCVAYNNQSNRLAVSRTDGTVEIYNLSANYFQEKFFPGHESRATEALCWAEGQRLFSAGLNGEIMEYDLQALNIKYAMDAFGGPIWSMAASPSGSQLLVGCEDGSVKLFQITPDKIQFERNFDRQKSRILSLSWHPSGTHIAAGSIDYISVFDVKSGSAVHKMIVDRQYMGVSKRKCIVWGVAFLSDGTIISVDSAGKVQFWDSATGTLVKSHLIANADVQSIAVADQEDSFVVGTAEGTVFHFQLVPVTSNSSEKQWVRTKPFQHHTHDVRTVAHSPTALISGGTDTHLVFRPLMEKVEVKNYDAALRKITFPHRCLISCSKKRQLLLFQFAHHLELWRLGSTVATGKNGDTLPLSKNADHLLHLKTKGPENIICSCISPCGSWIAYSTVSRFFLYRLNYEHDNISLKRVSKMPAFLRSALQILFSEDSTKLFVASNQGALHIVQLSGGSFKHLHAFQPQSGTVEAMCLLAVSPDGNWLAASGTSAGVHVYNVKQLKLHCTVPAYNFPVTAMAIAPNTNNLVIAHSDQQVFEYSIPDKQYTDWSRTVQKQGFHHLWLQRDTPITHISFHPKRPMHILLHDAYMFCIIDKSLPLPNDKTLLYNPFPPTNESDVIRRRTAHAFKISKIYKPLLFMDLLDERTLVAVERPLDDIIAQLPPPIKKKKFGT
B3: NUP133 (protein, UniProt Q8WUM0 1-1156, looked up)
Nuclear pore complex protein …: MFPAAPSPRTPGTGSRRGPLAGLGPGSTPRTASRKGLPLGSAVSSPVLFSPVGRRSSLSSRGTPTRMFPHHSITESVNYDVKTFGSSLPVKVMEALTLAEVDDQLTINIDEGGWACLVCKEKLIIWKIALSPITKLSVCKELQLPPSDFHWSADLVALSYSSPSGEAHSTQAVAVMVATREGSIRYWPSLAGEDTYTEAFVDSGGDKTYSFLTAVQGGSFILSSSGSQLIRLIPESSGKIHQHILPQGQGMLSGIGRKVSSLFGILSPSSDLTLSSVLWDRERSSFYSLTSSNISKWELDDSSEKHAYSWDINRALKENITDAIWGSESNYEAIKEGVNIRYLDLKQNCDGLVILAAAWHSADNPCLIYYSLITIEDNGCQMSDAVTVEVTQYNPPFQSEDLILCQLTVPNFSNQTAYLYNESAVYVCSTGTGKFSLPQEKIVFNAQGDSVLGAGACGGVPIIFSRNSGLVSITSRENVSILAEDLEGSLASSVAGPNSESMIFETTTKNETIAQEDKIKLLKAAFLQYCRKDLGHAQMVVDELFSSHSDLDSDSELDRAVTQISVDLMDDYPASDPRWAESVPEEAPGFSNTSLIILHQLEDKMKAHSFLMDFIHQVGLFGRLGSFPVRGTPMATRLLLCEHAEKLSAAIVLKNHHSRLSDLVNTAILIALNKREYEIPSNLTPADVFFREVSQVDTICECLLEHEEQVLRDAPMDSIEWAEVVINVNNILKDMLQAASHYRQNRNSLYRREESLEKEPEYVPWTATSGPGGIRTVIIRQHEIVLKVAYPQADSNLRNIVTEQLVALIDCFLDGYVSQLKSVDKSSNRERYDNLEMEYLQKRSDLLSPLLSLGQYLWAASLAEKYCDFDILVQMCEQTDNQSRLQRYMTQFADQNFSDFLFRWYLEKGKRGKLLSQPISQHGQLANFLQAHEHLSWLHEINSQELEKAHATLLGLANMETRYFAKKKTLLGLSKLAALASDFSEDMLQEKIEEMAEQERFLLHQETLPEQLLAEKQLNLSAMPVLTAPQLIGLYICEENRRANEYDFKKALDLLEYIDEEEDININDLKLEILCKALQRDNWSSSDGKDDPIEVSKDSIFVKILQKLLKDGIQLSEYLPEVKDLLQADQLGSLKSNPYFEFVLKANYEYYVQGQI
B4: RRP1B (protein, UniProt Q14684 1-758, looked up)
Ribosomal RNA processing …: MAPAMQPAEIQFAQRLASSEKGIRDRAVKKLRQYISVKTQRETGGFSQEELLKIWKGLFYCMWVQDEPLLQEELANTIAQLVHAVNNSAAQHLFIQTFWQTMNREWKGIDRLRLDKYYMLIRLVLRQSFEVLKRNGWEESRIKVFLDVLMKEVLCPESQSPNGVRFHFIDIYLDELSKVGGKELLADQNLKFIDPFCKIAAKTKDHTLVQTIARGVFEAIVDQSPFVPEETMEEQKTKVGDGDLSAEEIPENEVSLRRAVSKKKTALGKNHSRKDGLSDERGRDDCGTFEDTGPLLQFDYKAVADRLLEMTSRKNTPHFNRKRLSKLIKKFQDLSEGSSISQLSFAEDISADEDDQILSQGKHKKKGNKLLEKTNLEKEKGSRVFCVEEEDSESSLQKRRRKKKKKHHLQPENPGPGGAAPSLEQNRGREPEASGLKALKARVAEPGAEATSSTGEESGSEHPPAVPMHNKRKRPRKKSPRAHREMLESAVLPPEDMSQSGPSGSHPQGPRGSPTGGAQLLKRKRKLGVVPVNGSGLSTPAWPPLQQEGPPTGPAEGANSHTTLPQRRRLQKKKAGPGSLELCGLPSQKTASLKKRKKMRVMSNLVEHNGVLESEAGQPQALGSSGTCSSLKKQKLRAESDFVKFDTPFLPKPLFFRRAKSSTATHPPGPAVQLNKTPSSSKKVTFGLNRNMTAEFKKTDKSILVSPTGPSRVAFDPEQKPLHGVLKTPTSSPASSPLVAKKPLTTTPRRRPRAMDFF
B5: ZNF644 (protein, UniProt Q9H582 1-1327, looked up)
Zinc finger protein 644: MRSFLQQDVNKTKSRLNVLNGLANNMDDLKINTDITGAKEELLDDNNFISDKESGVHKPKDCQTSFQKNNTLTLPEELSKDKSENALSGGQSSLFIHAGAPTVSSENFILPKGAAVNGPVSHSSLTKTSNMNKGSVSLTTGQPVDQPTTESCSTLKVAADLQLSTPQKASQHQVLFLLSDVAHAKNPTHSNKKLPTSASVGCDIQNSVGSNIKSDGTLINQVEVGEDGEDLLVKDDCVNTVTGISSGTDGFRSENDTNWDPQKEFIQFLMTNEETVDKAPPHSKIGLEKKRKRKMDVSKITRYTEDCFSDSNCVPNKSKMQEVDFLEQNEELQAVDSQKYALSKVKPESTDEDLESVDAFQHLIYNPDKCGEESSPVHTSTFLSNTLKKKCEESDSESPATFSTEEPSFYPCTKCNVNFREKKHLHRHMMYHLDGNSHFRHLNVPRPYACRECGRTFRDRNSLLKHMIIHQERRQKLMEEIRELKELQDEGRSARLQCPQCVFGTNCPKTFVQHAKTHEKDKRYYCCEECNFMAVTENELECHRGIAHGAVVKCPMVTSDIAQRKTQKKTFMKDSVVGSSKKSATYICKMCPFTTSAKSVLKKHTEYLHSSSCVDSFGSPLGLDKRKNDILEEPVDSDSTKTLTKQQSTTFPKNSALKQDVKRTFGSTSQSSSFSKIHKRPHRIQKARKSIAQSGVNMCNQNSSPHKNVTIKSSVDQKPKYFHQAAKEKSNAKANSHYLYRHKYENYRMIKKSGESYPVHFKKEEASSLNSLHLFSSSSNSHNNFISDPHKPDAKRPESFKDHRRVAVKRVIKESKKESSVGGEDLDSYPDFLHKMTVVVLQKLNSAEKKDSYETEDESSWDNVELGDYTTQAIEDETYSDINQEHVNLFPLFKSKVEGQEPGENATLSYDQNDGFYFEYYEDTGSNNFLHEIHDPQHLETADASLSKHSSVFHWTDLSLEKKSCPYCPATFETGVGLSNHVRGHLHRAGLSYEARHVVSPEQIATSDKMQHFKRTGTGTPVKRVRKAIEKSETTSEHTCQLCGGWFDTKIGLSNHVRGHLKRLGKTKWDAHKSPICVLNEMMQNEEKYEKILKALNSRRIIPRPFVAQKLASSDDFISQNVIPLEAYRNGLKTEALSVSASEEEGLNFLNEYDETKPELPSGKKNQSLTLIELLKNKRMGEERNSAISPQKIHNQTARKRFVQKCVLPLNEDSPLMYQPQKMDLTMHSALDCKQKKSRSRSGSKKKMLTLPHGADEVYILRCRFCGLVFRGPLSVQEDWIKHLQRHIVNANLPRTGAGMVEVTSLLKKPASITETSFSLLMAEAAS

System: BAF complex subunits and histone proteins
Test: Mass spectrometry proteomics of purified HA-SS18 WT and HA-SS18-SSX1 complexes (Tables 5A-5E)
Set-up: species or system human
[1] = HA-SS18SSX1_CHR_peptides: protein identified in the HA-SS18-SSX1 purification from solubilized chromatin (CHR), HEK-293T
[2] = HA-SS18SSX1 purification, NE (soluble nuclear extract) fraction, HEK-293T, peptides per identified protein
[3] = HA-SS18WT_CHR_peptides: HA-SS18 WT purification from nuclease-treated solubilized chromatin (CHR), HEK-293T, label = protein identified
[4] = HA-SS18WT_NE_peptides: HA-SS18 WT complexes purified from nuclear extract (NE), HEK-293T, label = protein identified (Gene Symbol)
[5] = HA-SS18SSX1_NE_peptides: protein co-purified with HA-SS18-SSX1 BAF complexes from soluble nuclear extract (NE), HEK-293T cells
[6] = HA-SS18WT_NE_peptides: proteins co-purified with HA-SS18 WT from nuclear extract (NE), HEK-293T
[7] = HA-SS18WT_CHR_peptides: protein identified in HA-SS18 WT BAF complex purification from nuclease-treated solubilized chromatin (CHR), HEK-293T

Molecule | Total (total peptides) [1] | Unique (unique peptides) [1] | Total (total peptides) [2] | Unique (unique peptides) [2] | Total (peptides) [3] | Unique (peptides) [3] | Total (peptides) [4] | Unique (peptides) [4] | Total (peptides) [5] | Unique (peptides) [5] | Total (peptides) [6] | Unique (peptides) [6] | Total (total peptides) [7] | Unique (unique peptides) [7]
B1 | 5 | 5 | 9 | 8 | 4 | 3 | 10 | 10 | – | – | – | – | – | –
B2 | 5 | 5 | – | – | 3 | 3 | – | – | 1 | 1 | 2 | 2 | – | –
B3 | 5 | 5 | – | – | – | – | – | – | – | – | – | – | 2 | 2
B4 | 5 | 5 | 4 | 4 | – | – | 3 | 3 | – | – | – | – | – | –
B5 | 5 | 5 | – | – | 4 | 4 | – | – | – | – | – | – | – | –
